For one molecule, binding results are on record in patent US20230227557A1 (PROMAB BIOTECHNOLOGIES, published 2023).

The chains behind the UniProt entries cited, without tags or fusion partners.
UniProt Q9NZQ7: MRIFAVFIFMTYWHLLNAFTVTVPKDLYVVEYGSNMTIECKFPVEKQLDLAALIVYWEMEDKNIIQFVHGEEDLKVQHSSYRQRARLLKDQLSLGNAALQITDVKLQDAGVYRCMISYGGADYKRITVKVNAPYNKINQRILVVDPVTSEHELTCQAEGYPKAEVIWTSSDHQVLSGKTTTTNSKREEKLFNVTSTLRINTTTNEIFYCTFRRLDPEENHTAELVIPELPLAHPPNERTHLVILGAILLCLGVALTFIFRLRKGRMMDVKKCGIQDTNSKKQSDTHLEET

The experiment has as its target PD-L1 extracellular domain fused to human Fc (PD-L1-hFc) (UniProt Q9NZQ7). The experiment in a line: Western blot on the lysate of transfected HEK 293 cells.

These are yes or no findings as the source states them, for the method shown. Some results given as binding are weak or reduced against the parent protein; the word gives no strength.

B1: mouse monoclonal anti-human PD-L1 antibody (hybridoma clone 7D2A10) (antibody, V domains shown)
VH: QIQLVQSGPELKNPGETVKISCKASGYTFTNYGMNWVKQAPGKGLKWMGWINTHTGEPTYADDFKGRFAFSSETSASSAYLQINNLKNDDMATYFCAKGTHREEIPAWFAYWGQGTLVTVSA
VL: DVLMTQTPLSLPVSLGDQASISCRSSQSIVHSNGNTYLEWYLQKPGQSPELLIYKVSNLFSGVPDRFSGSGSGTDFTLKISRVEAEDLGVYYCFQGSHVPPTFGAGTKLELKR
notes: also called Promab anti-PD-L1; PD-L1 monoclonal antibody
On to B1, for which the binding entry was “binds”.
